Data: the supplement of paper PMC10849652
This is one part of the list.

Protein sequences, listed by entry. Tags and fused reporters are not part of them. Lines headed by an entry give the natural chain unless they say otherwise; changes in a name come on top.
UniProt Q6NT46: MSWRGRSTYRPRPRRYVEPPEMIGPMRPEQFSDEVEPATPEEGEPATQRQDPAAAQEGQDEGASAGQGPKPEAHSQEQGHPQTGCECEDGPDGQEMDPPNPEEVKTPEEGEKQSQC
UniProt Q8NB37: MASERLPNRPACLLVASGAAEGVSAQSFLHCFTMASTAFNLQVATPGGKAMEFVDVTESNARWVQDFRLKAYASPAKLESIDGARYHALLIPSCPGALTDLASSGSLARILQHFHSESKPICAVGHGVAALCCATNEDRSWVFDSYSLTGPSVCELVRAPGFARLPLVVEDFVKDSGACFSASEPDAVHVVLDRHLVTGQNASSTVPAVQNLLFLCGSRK
UniProt P02794, whole entry, looked up: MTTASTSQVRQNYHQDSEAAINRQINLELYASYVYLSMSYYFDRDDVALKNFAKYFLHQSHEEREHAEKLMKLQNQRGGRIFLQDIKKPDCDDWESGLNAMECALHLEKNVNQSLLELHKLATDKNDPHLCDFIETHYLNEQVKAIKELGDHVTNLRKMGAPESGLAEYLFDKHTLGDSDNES
UniProt P04066: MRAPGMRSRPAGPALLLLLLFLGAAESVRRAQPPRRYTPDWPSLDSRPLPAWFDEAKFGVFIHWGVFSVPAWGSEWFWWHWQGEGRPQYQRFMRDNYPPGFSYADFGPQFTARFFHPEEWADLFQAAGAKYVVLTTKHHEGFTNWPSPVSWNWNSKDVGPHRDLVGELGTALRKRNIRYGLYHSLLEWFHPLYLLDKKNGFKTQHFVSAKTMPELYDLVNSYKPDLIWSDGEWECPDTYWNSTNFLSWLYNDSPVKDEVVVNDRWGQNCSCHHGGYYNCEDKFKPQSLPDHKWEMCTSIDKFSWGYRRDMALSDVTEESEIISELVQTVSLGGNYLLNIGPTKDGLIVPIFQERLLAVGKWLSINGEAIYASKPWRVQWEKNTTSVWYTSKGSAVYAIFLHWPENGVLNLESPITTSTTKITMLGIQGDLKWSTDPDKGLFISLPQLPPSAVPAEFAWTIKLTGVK
UniProt P54803: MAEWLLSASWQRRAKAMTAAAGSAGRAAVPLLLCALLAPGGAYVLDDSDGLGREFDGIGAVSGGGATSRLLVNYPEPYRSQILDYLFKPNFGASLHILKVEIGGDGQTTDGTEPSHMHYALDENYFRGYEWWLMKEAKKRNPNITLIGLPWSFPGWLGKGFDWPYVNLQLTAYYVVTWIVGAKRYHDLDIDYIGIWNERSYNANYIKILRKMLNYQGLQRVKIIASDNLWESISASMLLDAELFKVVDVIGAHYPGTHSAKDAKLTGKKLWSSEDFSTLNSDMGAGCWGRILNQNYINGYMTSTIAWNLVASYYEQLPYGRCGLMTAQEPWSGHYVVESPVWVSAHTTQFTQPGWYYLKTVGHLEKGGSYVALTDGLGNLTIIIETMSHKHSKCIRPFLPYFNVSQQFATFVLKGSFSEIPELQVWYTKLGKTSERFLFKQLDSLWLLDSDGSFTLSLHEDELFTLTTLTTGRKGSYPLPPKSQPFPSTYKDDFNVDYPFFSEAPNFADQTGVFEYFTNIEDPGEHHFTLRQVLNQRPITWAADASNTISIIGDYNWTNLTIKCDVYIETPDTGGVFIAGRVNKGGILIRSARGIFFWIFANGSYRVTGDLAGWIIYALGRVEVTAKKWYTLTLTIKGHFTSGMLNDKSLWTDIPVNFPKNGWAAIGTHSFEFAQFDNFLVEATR
UniProt Q10472: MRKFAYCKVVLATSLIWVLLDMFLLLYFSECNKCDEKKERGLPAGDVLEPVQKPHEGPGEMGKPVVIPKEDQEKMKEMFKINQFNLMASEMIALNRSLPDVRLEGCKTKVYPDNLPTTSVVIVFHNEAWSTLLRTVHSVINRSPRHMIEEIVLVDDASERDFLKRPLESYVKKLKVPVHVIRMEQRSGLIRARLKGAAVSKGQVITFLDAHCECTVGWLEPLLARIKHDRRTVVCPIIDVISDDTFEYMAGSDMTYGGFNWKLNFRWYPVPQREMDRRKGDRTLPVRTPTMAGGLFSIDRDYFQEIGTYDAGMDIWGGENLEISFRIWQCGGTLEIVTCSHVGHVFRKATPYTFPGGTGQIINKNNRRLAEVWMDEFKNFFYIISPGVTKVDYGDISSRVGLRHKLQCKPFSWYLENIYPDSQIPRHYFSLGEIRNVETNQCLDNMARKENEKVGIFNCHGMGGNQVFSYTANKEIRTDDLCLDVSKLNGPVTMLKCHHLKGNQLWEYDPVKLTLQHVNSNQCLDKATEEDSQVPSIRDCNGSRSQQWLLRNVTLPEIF
UniProt Q8IVP5: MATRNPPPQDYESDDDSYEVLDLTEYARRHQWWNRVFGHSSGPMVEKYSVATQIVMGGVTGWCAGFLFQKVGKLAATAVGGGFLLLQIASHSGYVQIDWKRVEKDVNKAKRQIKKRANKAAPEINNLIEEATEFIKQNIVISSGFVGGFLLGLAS
UniProt O43716: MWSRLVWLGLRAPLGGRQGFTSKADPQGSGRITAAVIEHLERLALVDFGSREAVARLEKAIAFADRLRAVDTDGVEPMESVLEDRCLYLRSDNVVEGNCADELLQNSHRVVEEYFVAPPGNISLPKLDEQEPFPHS
UniProt Q8TB36: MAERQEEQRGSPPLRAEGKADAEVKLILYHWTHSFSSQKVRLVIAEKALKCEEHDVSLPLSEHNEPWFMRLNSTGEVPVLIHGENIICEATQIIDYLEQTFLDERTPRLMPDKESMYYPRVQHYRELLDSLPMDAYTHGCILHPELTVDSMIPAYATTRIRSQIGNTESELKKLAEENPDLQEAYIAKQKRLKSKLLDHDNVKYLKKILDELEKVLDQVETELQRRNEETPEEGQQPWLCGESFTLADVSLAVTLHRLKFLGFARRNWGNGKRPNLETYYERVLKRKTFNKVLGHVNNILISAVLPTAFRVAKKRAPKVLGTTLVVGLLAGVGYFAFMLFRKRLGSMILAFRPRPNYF
FOXO3B, A0A2Z4LIS9, UniProt A0A2Z4LIS9, whole entry, looked up: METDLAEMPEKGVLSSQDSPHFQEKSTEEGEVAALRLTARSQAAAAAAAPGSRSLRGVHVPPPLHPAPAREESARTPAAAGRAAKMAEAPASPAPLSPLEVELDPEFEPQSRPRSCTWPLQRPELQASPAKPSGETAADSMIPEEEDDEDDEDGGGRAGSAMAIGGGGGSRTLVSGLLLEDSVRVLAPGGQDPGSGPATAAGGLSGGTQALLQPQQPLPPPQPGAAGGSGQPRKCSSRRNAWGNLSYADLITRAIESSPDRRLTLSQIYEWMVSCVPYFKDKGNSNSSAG
UniProt Q17RS7: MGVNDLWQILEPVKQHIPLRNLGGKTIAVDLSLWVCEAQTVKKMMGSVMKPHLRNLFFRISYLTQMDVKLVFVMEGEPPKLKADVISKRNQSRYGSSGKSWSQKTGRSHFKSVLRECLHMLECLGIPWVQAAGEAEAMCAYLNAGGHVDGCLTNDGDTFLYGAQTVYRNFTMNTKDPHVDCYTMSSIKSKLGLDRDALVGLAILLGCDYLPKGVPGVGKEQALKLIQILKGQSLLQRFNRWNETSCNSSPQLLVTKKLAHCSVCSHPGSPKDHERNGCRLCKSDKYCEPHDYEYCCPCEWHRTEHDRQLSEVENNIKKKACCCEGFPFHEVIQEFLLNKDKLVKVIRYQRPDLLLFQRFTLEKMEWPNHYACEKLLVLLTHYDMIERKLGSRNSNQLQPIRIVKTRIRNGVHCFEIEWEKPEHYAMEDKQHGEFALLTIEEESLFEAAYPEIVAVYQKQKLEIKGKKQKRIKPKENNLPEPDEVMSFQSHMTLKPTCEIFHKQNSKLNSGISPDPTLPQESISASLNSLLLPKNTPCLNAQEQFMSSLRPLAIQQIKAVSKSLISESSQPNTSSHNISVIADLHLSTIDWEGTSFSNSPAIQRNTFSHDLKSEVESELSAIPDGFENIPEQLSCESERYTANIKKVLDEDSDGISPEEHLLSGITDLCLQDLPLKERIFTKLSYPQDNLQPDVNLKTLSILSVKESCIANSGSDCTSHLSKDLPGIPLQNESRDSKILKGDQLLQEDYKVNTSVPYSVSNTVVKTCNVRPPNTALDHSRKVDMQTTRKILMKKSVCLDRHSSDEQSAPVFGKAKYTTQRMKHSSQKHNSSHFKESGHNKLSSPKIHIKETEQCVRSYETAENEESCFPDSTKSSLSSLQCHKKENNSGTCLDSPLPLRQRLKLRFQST
UniProt Q9BZ67: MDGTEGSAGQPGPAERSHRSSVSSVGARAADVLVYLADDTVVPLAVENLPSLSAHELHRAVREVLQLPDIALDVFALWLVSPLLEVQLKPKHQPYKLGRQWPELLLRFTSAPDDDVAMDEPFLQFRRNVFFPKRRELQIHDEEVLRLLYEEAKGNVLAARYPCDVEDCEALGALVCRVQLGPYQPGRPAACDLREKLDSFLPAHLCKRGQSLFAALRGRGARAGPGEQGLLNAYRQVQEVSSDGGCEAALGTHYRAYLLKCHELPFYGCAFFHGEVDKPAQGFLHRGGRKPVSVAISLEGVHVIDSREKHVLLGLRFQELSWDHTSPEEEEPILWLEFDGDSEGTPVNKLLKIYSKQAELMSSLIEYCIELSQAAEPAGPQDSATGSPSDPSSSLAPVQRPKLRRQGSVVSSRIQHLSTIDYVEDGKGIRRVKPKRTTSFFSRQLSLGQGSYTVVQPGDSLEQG
UniProt P06241, whole entry, looked up: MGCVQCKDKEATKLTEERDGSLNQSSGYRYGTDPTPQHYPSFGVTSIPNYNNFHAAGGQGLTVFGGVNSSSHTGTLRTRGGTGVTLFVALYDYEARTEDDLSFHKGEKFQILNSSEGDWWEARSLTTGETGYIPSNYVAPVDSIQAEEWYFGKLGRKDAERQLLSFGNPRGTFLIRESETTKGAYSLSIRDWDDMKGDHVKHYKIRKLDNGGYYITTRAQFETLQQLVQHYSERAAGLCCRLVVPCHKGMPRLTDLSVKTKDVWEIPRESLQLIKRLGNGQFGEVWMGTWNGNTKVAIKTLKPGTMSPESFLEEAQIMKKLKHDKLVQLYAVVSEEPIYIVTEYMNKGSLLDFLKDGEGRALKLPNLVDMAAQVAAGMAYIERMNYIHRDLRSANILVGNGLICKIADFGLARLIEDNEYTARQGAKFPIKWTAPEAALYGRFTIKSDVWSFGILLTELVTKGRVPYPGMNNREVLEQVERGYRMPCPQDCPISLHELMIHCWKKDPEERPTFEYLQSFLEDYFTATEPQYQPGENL
UniProt Q9H334: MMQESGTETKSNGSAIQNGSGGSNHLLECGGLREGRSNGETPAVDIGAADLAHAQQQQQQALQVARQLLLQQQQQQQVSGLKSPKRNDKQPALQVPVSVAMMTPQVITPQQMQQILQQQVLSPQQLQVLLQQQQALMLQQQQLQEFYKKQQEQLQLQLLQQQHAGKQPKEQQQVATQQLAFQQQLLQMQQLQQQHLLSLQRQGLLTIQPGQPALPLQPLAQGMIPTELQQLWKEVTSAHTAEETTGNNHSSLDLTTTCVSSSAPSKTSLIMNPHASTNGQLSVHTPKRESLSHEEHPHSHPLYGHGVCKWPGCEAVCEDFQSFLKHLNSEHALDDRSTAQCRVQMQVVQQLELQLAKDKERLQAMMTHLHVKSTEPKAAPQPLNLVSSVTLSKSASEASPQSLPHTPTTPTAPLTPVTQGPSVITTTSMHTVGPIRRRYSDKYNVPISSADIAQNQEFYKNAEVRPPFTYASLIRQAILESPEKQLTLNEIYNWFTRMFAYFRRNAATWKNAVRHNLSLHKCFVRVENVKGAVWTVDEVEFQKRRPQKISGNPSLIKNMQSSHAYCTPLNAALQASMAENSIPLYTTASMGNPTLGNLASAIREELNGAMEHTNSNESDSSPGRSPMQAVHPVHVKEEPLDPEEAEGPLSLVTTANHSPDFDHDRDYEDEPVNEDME
UniProt Q92837: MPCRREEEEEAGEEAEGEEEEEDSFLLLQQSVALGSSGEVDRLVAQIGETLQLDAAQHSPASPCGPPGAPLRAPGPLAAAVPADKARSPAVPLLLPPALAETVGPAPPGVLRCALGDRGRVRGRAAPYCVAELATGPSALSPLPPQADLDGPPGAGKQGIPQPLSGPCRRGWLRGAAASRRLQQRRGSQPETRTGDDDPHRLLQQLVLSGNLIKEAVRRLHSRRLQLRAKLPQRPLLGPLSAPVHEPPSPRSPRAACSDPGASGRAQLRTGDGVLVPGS
UniProt O14926: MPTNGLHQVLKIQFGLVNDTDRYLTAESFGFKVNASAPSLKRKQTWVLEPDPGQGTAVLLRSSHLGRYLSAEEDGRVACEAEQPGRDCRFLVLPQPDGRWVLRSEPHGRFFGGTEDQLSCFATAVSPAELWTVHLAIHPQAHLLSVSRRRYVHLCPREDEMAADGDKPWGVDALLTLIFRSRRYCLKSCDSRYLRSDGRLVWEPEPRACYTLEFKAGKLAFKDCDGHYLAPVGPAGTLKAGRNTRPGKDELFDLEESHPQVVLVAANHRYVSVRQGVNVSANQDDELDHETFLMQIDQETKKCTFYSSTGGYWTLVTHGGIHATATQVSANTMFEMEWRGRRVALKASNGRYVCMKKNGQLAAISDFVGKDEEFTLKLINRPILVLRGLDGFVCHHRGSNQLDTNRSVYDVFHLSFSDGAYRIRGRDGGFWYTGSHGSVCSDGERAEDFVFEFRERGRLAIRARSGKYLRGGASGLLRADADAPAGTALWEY

Experiments:
Test in all cases: log2 fold change, soluble protein after heating vs DMSO (PISA); higher = thermal stabilisation; K562 lysate, 10 uM; active = over 0.2 and 3.5 SD of the protein, either way, in both replicates (recomputed)
vemurafenib = compound: CCCS(=O)(=O)Nc1ccc(F)c(C(=O)c2c[nH]c3ncc(-c4ccc(Cl)cc4)cc23)c1F [vemurafenib]
Method in brief: (§1)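 A 30 min treatment with 10 μM compound was applied to crude K562 extract at 1 mg/mL protein in PBS pH 7.4 with 1 mM MgCl2. Heating for 3 min spanned 48°C-58°C, after which aliquots were pooled, adjusted to 0.5% NP-40 at 4°C and spun at 21,000xg for 90 min. TMTpro 16plex LC-MS/MS of the supernatant, with channel sums equalised, gave values recorded as log-two fold change in thermal stability against solvent controls, from duplicates.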

[1] = compound: CCCS(=O)(=O)Nc1ccc(F)c(C(=O)c2c[nH]c3ncc(Cl)cc23)c1F
Method in brief: as §1

barasertib = compound: CCN(CCCOc1ccc2c(Nc3cc(CC(=O)Nc4cccc(F)c4)[nH]n3)ncnc2c1)CCOP(=O)(O)O [barasertib]
Method in brief: as §1

[2] = compound: CC[C@@H]1C(=O)N(C)c2cnc(Nc3ccc(C(=O)NC4CCN(C)CC4)cc3OC)nc2N1C1CCCC1
Method in brief: as §1

volasertib = compound: CC[C@@H]1C(=O)N(C)c2cnc(Nc3ccc(C(=O)N[C@H]4CC[C@H](N5CCN(CC6CC6)CC5)CC4)cc3OC)nc2N1C(C)C [volasertib]
Method in brief: as §1

[3] = compound: CCn1c(C(=O)N(C2CC2)C2CC2)cc2c3c(ncn3C)c(Nc3cc(C)n(C)n3)nc21
Method in brief: as §1

[4] = compound: CCn1cc(-c2ccnc3[nH]c(-c4cccc(CN(C)C)c4)cc23)c(-c2ccc(NC(=O)N(C)C)cc2)n1
Method in brief: as §1

[5] = compound: CN1CCC(CNc2ccc3ncc(-c4cccc(OC(F)(F)F)c4)n3n2)CC1
Method in brief: as §1

saracatinib = compound: CN1CCN(CCOc2cc(OC3CCOCC3)c3c(Nc4c(Cl)ccc5c4OCO5)ncnc3c2)CC1 [saracatinib]
Method in brief: as §1

sotrastaurin = compound: CN1CCN(c2nc(C3=C(c4c[nH]c5ccccc45)C(=O)NC3=O)c3ccccc3n2)CC1 [sotrastaurin]
Method in brief: as §1

Measured: log2 fold change

GAGE2A (UniProt Q6NT46)
inactive: vemurafenib 0.05 | [1] -0.039 | barasertib 0.26 | [2] 0.051 | volasertib 0.082 | [3] -0.014 | [4] 0.003 | [5] -0.028 | saracatinib 0.002 | sotrastaurin 0.037

GET4 (UniProt Q7L5D6)
inactive: vemurafenib 0.041 | [1] 0.031 | barasertib 0.027 | [2] -0.012 | volasertib -0.049 | [3] 0.021 | [4] 0.029 | [5] -0.124 | saracatinib 0.076 | sotrastaurin 0.058

GATD1 (UniProt Q8NB37)
inactive: vemurafenib -0.008 | [1] 0.021 | barasertib 0.034 | [2] -0.06 | volasertib -0.021 | [3] -0.004 | [4] -0.026 | [5] 0.059 | saracatinib -0.024 | sotrastaurin 0.035

FTH1 (UniProt P02794)
inactive: vemurafenib -0.053 | [1] 0.019 | barasertib 0.012 | [2] -0.035 | volasertib -0.051 | [3] 0.013 | [4] -0.107 | [5] 0.058 | saracatinib 0.009 | sotrastaurin -0.002

FUBP1 isoform 2 (UniProt Q96AE4)
inactive: vemurafenib -0.018 | [1] 0 | barasertib -0.016 | [2] 0.032 | volasertib 0.017 | [3] 0.014 | [4] 0.099 | [5] 0.047 | saracatinib -0.021 | sotrastaurin -0.035

GAB2 (UniProt Q9UQC2)
inactive: vemurafenib -0.03 | [1] 0.007 | barasertib -0.021 | [2] -0.019 | volasertib -0.018 | [3] -0.031 | [4] -0.044 | [5] -0.01 | saracatinib 0.03 | sotrastaurin 0.008

GALNT5 (UniProt Q7Z7M9)
inactive: vemurafenib 0.046 | [1] -0.011 | barasertib 0.028 | [2] 0.057 | volasertib 0.012 | [3] -0.039 | [4] -0.006 | [5] -0.046 | saracatinib 0.013 | sotrastaurin 0.021

FUCA1 (UniProt P04066)
inactive: vemurafenib 0.027 | [1] 0.007 | barasertib -0.015 | [2] -0.004 | volasertib 0.026 | [3] -0.042 | [4] -0.138 | [5] 0.088 | saracatinib 0.019 | sotrastaurin -0.006

FUNDC2 (UniProt Q9BWH2)
inactive: vemurafenib 0.016 | [1] 0.004 | barasertib 0.01 | [2] 0.049 | volasertib -0.001 | [3] -0.004 | [4] -0.061 | [5] 0.064 | saracatinib 0 | sotrastaurin 0.005

GALC (UniProt P54803)
inactive: vemurafenib -0.054 | [1] 0.021 | barasertib 0.055 | [2] 0.035 | volasertib 0.021 | [3] -0.024 | [4] -0.13 | [5] 0.092 | saracatinib 0.05 | sotrastaurin 0

GCC2 (UniProt Q8IWJ2)
inactive: vemurafenib 0.018 | [1] 0.004 | barasertib 0.003 | [2] 0.033 | volasertib -0.002 | [3] 0.024 | [4] -0.037 | [5] 0.012 | saracatinib 0.01 | sotrastaurin -0.004

Two neighbouring entries out of the list so far, for reference:
GALNT5 (UniProt Q7Z7M9)
inactive: vemurafenib 0.046 | [1] -0.011 | barasertib 0.028 | [2] 0.057 | volasertib 0.012 | [3] -0.039 | [4] -0.006 | [5] -0.046 | saracatinib 0.013 | sotrastaurin 0.021

FUCA1 (UniProt P04066)
inactive: vemurafenib 0.027 | [1] 0.007 | barasertib -0.015 | [2] -0.004 | volasertib 0.026 | [3] -0.042 | [4] -0.138 | [5] 0.088 | saracatinib 0.019 | sotrastaurin -0.006

Remaining list, next part

GATAD2A isoform 3 (UniProt Q86YP4)
inactive: vemurafenib -0.014 | [1] 0.019 | barasertib 0.008 | [2] 0.012 | volasertib -0.014 | [3] -0.004 | [4] -0.058 | [5] 0.022 | saracatinib 0.022 | sotrastaurin -0.002

GALNT1 (UniProt Q10472)
inactive: vemurafenib 0.018 | [1] -0.003 | barasertib 0.006 | [2] -0.01 | volasertib -0.008 | [3] -0.04 | [4] -0.147 | [5] -0.006 | saracatinib -0.018 | sotrastaurin 0.003

G3BP1 (UniProt Q13283)
inactive: vemurafenib -0.018 | [1] 0.01 | barasertib -0.033 | [2] -0.036 | volasertib -0.006 | [3] 0.013 | [4] -0.188 | [5] 0.098 | saracatinib -0.015 | sotrastaurin 0.047

GDI2 (UniProt Q5SX86)
inactive: vemurafenib -0.609 | [1] 0.014 | barasertib 0.484 | volasertib -0.005 | [3] -0.074 | [4] 0.07 | [5] -0.075 | saracatinib 0.117

GDF15 (UniProt Q99988)
inactive: vemurafenib 0.034 | [3] 0.027 | [4] 0.12 | [5] -0.128 | saracatinib 0.041 | sotrastaurin 0.071

FUNDC1 (UniProt Q8IVP5)
inactive: vemurafenib 0.134 | [1] -0.013 | [2] -0.059 | volasertib 0.085 | [3] -0.143 | [4] -0.107 | [5] 0.085 | saracatinib 0.096 | sotrastaurin -0.008

GAGE1 (UniProt Q13065)
inactive: [1] -0.121 | barasertib 0.073 | [2] -0.14 | volasertib -0.036 | [3] -0.037

FRAS1 isoform 2 (UniProt Q86XX4)
inactive: vemurafenib 0.11 | saracatinib -0.02 | sotrastaurin -0.045

FURIN (UniProt P09958)
inactive: vemurafenib 0.123 | barasertib 0.067 | [2] -0.055 | [3] 0.014 | [4] -0.051 | [5] 0.008 | saracatinib 0.08 | sotrastaurin 0.002

GATC (UniProt O43716)
inactive: vemurafenib 0.086 | [1] -0.021 | [2] 0.027 | volasertib -0.045 | [3] 0.027 | [4] 0.128 | [5] -0.129 | saracatinib -0.045 | sotrastaurin -0.012

FYTTD1 (UniProt Q96QD9)
inactive: vemurafenib 0.057 | barasertib 0.058 | [2] -0.444 | saracatinib -0.085 | sotrastaurin 0.028

GDAP1 (UniProt Q8TB36)
inactive: vemurafenib 0.129 | [1] 0.02 | barasertib -0.057 | [2] 0.144 | volasertib 0.003 | [3] 0.112 | [4] 0.111 | [5] -0.06 | saracatinib -0.018 | sotrastaurin 0.049

FOXRED2 (UniProt Q8IWF2)
inactive: vemurafenib -0.007 | [2] 0.176 | [3] -0.025 | saracatinib 0.021 | sotrastaurin -0.041

FOXO3B, A0A2Z4LIS9
inactive: vemurafenib 0.011 | saracatinib 0.027

FRMPD2 (UniProt Q68DX3)
inactive: vemurafenib 0.03 | [1] -0.038 | [2] -0.091 | volasertib 0.084 | [4] 0.087 | [5] -0.164

GEN1 (UniProt Q17RS7)
inactive: vemurafenib -0.143 | [2] 0.013 | [3] 0.055 | saracatinib 0.035 | sotrastaurin 0

FRMD8 (UniProt Q9BZ67)
inactive: vemurafenib 0.019 | barasertib -0.127 | [2] 0.06 | [4] -0.126 | [5] -0.063 | saracatinib 0.177 | sotrastaurin 0

FYN (UniProt P06241)
inactive: vemurafenib -0.036 | [1] -0.01 | barasertib 0.065 | [2] -0.351 | volasertib 0.046 | [3] 0.033 | [4] 0.048 | [5] 0.22 | sotrastaurin 0.023

FRMPD3 (UniProt Q5JV73)
inactive: vemurafenib 0.003 | [1] 0.016 | barasertib 1.15 | volasertib -0.01 | [3] -0.11 | [4] 0.636 | [5] 0

FOXP1 (UniProt Q9H334)
inactive: vemurafenib 0.082 | barasertib 0 | [2] -0.077 | [3] 0.096 | [4] 0.032 | [5] -0.035 | saracatinib 0.035 | sotrastaurin 0.102

GATB (UniProt O75879)
inactive: vemurafenib -0.228 | [1] 0.143 | volasertib 0.008 | [3] -0.006 | [4] -0.023 | [5] -0.075 | saracatinib -0.142

FRAT1 (UniProt Q92837)
inactive: vemurafenib -0.101 | [2] 0.111 | saracatinib -0.033

GALNT4 (UniProt Q8N4A0)
inactive: vemurafenib -0.037 | [1] 0.025 | barasertib 0.035 | [2] 0.085 | volasertib 0.086 | [4] 0.024 | [5] -0.038 | saracatinib 0.029 | sotrastaurin 0.093

GAA (UniProt P10253)
inactive: vemurafenib 0.068 | [1] -0.101 | barasertib -0.063 | [2] -0.006 | volasertib 0.015 | [3] -0.021 | [4] 0.122 | [5] 0.027 | sotrastaurin -0.039

FSCN2 isoform 2 (UniProt O14926)
inactive: vemurafenib -0.173 | [2] -0.096 | sotrastaurin -0.011
